Test results: paper PMC10212096
These are yes or no findings as the source states them, for the method shown. For some of these results: In cells and extracts the contact can be indirect. Some results given as binding are weak or reduced against the parent protein; the word gives no strength. Sequences can lack the tags named with a protein. One block for each binder: values may come before it.

Chains of the proteins cited; added tags and fusions are not shown.
UniProt P93003: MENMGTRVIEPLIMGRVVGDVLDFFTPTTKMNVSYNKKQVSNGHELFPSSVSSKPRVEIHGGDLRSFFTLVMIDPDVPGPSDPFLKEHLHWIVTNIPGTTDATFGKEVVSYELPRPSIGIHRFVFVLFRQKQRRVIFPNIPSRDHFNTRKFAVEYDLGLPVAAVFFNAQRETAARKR
UniProt Q9SXZ2: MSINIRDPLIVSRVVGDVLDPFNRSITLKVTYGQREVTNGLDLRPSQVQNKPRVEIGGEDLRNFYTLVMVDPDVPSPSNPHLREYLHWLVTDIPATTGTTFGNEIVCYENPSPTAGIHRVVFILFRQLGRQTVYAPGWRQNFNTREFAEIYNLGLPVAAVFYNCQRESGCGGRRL

Assays:
[1] = molecular target: TERMINAL FLOWER 1 (TFL1), DNA-binding-domain fusion in pDEST32 (Arabidopsis thaliana) (UniProt P93003); assay: two-hybrid; bZIPs in pDEST22 (activation domain), FT and TFL1 in pDEST32 (DNA-binding domain); yeast PJ69-4A; growth on SD -L-W-H plates, 30°C, six days
[2] = molecular target: TFL1 with C-terminal GFP (Arabidopsis thaliana) (UniProt P93003); assay: co-IP; co-agroinfiltration of N. benthamiana leaves in pairs; GFP-tagged FT or TFL1 precipitated with anti-GFP nanobody beads (GFP-trapA); 5xMyC-tagged proteins detected with anti-MyC
[3] = molecular target: FT with C-terminal GFP (Arabidopsis thaliana) (UniProt Q9SXZ2); assay: as above
[4] = molecular target: FLOWERING LOCUS T (FT), DNA-binding-domain fusion in pGBKT7-GW (Arabidopsis thaliana) (UniProt Q9SXZ2); assay: two-hybrid; bZIPs in pGADT7-GW (AD), FT in pGBKT7-GW (BD); performed as in ref. 58 (S2 Fig)
[5] = molecular target: FLOWERING LOCUS T (FT), DNA-binding-domain fusion in pDEST32 (Arabidopsis thaliana) (UniProt Q9SXZ2); assay: two-hybrid; bZIPs in pDEST22 (activation domain), FT and TFL1 in pDEST32 (DNA-binding domain); yeast PJ69-4A; growth on SD -L-W-H plates, 30°C, six days
[6] = molecular target: FT:cYFP (Arabidopsis thaliana) (UniProt Q9SXZ2); assay: split reporter; BiFC in N. benthamiana leaves; nYFP fusions with FT:cYFP and nuclear marker H2B:mCHERRY; YFP/mCHERRY ratio of n>150 nuclei, two replicates
[7] = molecular target: TERMINAL FLOWER 1 (TFL1), DNA-binding-domain fusion in pDEST32 (Arabidopsis thaliana), P93003; assay: two-hybrid; bZIPs in pDEST22 (activation domain), FT and TFL1 in pDEST32 (DNA-binding domain); yeast PJ69-4A; growth on SD -L-W-H plates, 30°C, six days; conditions: remark: other sources report otherwise
[8] = molecular target: FLOWERING LOCUS T (FT), DNA-binding-domain fusion in pDEST32 (Arabidopsis thaliana), Q9SXZ2; assay: as above; conditions: remark: other sources report otherwise
[9] = molecular target: FT with C-terminal GFP (Arabidopsis thaliana), Q9SXZ2; assay: co-IP; co-agroinfiltration of N. benthamiana leaves in pairs; GFP-tagged FT or TFL1 precipitated with anti-GFP nanobody beads (GFP-trapA); 5xMyC-tagged proteins detected with anti-MyC; conditions: remark: other sources report otherwise
[10] = molecular target: TFL1 with C-terminal GFP (Arabidopsis thaliana), P93003; assay: as above; conditions: remark: other sources report otherwise

B1: AREB3^S294A, activation-domain fusion in pDEST22 (protein, UniProt Q9LES3 1-297)
chain: MDSQRGIVEQAKSQSLNRQSSLYSLTLDEVQNHLGSSGKALGSMNLDELLKSVCSVEANQPSSMAVNGGAAAQEGLSRQGSLTLPRDLSKKTVDEVWKDIQQNKNGGSAHERRDKQPTLGEMTLEDLLLKAGVVTETIPGSNHDGPVGGGSAGSGAGLGQNITQVGPWIQYHQLPSMPQPQAFMPYPVSDMQAMVSQSSLMGGLSDTQTPGRKRVASGEVVEKTVERRQKRMIKNRESAARSRARKQAYTHELEIKVSRLEEENERLRKQKEVEKILPSVPPPDPKRQLRRTSAAPF
binding [1]: binds

B2: AREB3^S294A with N-terminal 5xMyC (protein, UniProt Q9LES3 1-297)
chain: MDSQRGIVEQAKSQSLNRQSSLYSLTLDEVQNHLGSSGKALGSMNLDELLKSVCSVEANQPSSMAVNGGAAAQEGLSRQGSLTLPRDLSKKTVDEVWKDIQQNKNGGSAHERRDKQPTLGEMTLEDLLLKAGVVTETIPGSNHDGPVGGGSAGSGAGLGQNITQVGPWIQYHQLPSMPQPQAFMPYPVSDMQAMVSQSSLMGGLSDTQTPGRKRVASGEVVEKTVERRQKRMIKNRESAARSRARKQAYTHELEIKVSRLEEENERLRKQKEVEKILPSVPPPDPKRQLRRTSAAPF
binding [2]: binds
binding [3]: binds

B3: AREB3, activation-domain fusion in pGADT7-GW (protein, UniProt Q9LES3 1-297)
chain: MDSQRGIVEQAKSQSLNRQSSLYSLTLDEVQNHLGSSGKALGSMNLDELLKSVCSVEANQPSSMAVNGGAAAQEGLSRQGSLTLPRDLSKKTVDEVWKDIQQNKNGGSAHERRDKQPTLGEMTLEDLLLKAGVVTETIPGSNHDGPVGGGSAGSGAGLGQNITQVGPWIQYHQLPSMPQPQAFMPYPVSDMQAMVSQSSLMGGLSDTQTPGRKRVASGEVVEKTVERRQKRMIKNRESAARSRARKQAYTHELEIKVSRLEEENERLRKQKEVEKILPSVPPPDPKRQLRRTSSAPF
binding [4]: binds

B5: AREB3 with N-terminal 5xMyC (protein, UniProt Q9LES3 1-297)
chain: MDSQRGIVEQAKSQSLNRQSSLYSLTLDEVQNHLGSSGKALGSMNLDELLKSVCSVEANQPSSMAVNGGAAAQEGLSRQGSLTLPRDLSKKTVDEVWKDIQQNKNGGSAHERRDKQPTLGEMTLEDLLLKAGVVTETIPGSNHDGPVGGGSAGSGAGLGQNITQVGPWIQYHQLPSMPQPQAFMPYPVSDMQAMVSQSSLMGGLSDTQTPGRKRVASGEVVEKTVERRQKRMIKNRESAARSRARKQAYTHELEIKVSRLEEENERLRKQKEVEKILPSVPPPDPKRQLRRTSSAPF
binding [2]: binds
binding [3]: binds

B7: AREB3^ΔSAP, truncated version of AREB3 (R291*) lacking the SAP motif, two-hybrid fusion (domain or fragment, UniProt Q9LES3 1-290)
chain: MDSQRGIVEQAKSQSLNRQSSLYSLTLDEVQNHLGSSGKALGSMNLDELLKSVCSVEANQPSSMAVNGGAAAQEGLSRQGSLTLPRDLSKKTVDEVWKDIQQNKNGGSAHERRDKQPTLGEMTLEDLLLKAGVVTETIPGSNHDGPVGGGSAGSGAGLGQNITQVGPWIQYHQLPSMPQPQAFMPYPVSDMQAMVSQSSLMGGLSDTQTPGRKRVASGEVVEKTVERRQKRMIKNRESAARSRARKQAYTHELEIKVSRLEEENERLRKQKEVEKILPSVPPPDPKRQLR
binding [4]: binds

B9: FD PARALOGUE (FDP), activation-domain fusion in pDEST22 (protein, UniProt Q7PCC6 1-234)
chain: MLSSAKHNKINNHSAFSISSSSSSLSTSSSLGHNKSQVTMEEVWKEINLGSLHYHRQLNIGHEPMLKNQNPNNSIFQDFLNMPLNQPPPPPPPPSSSTIVTALYGSLPLPPPATVLSLNSGVGFEFLDTTENLLASNPRSFEESAKFGCLGKKRGQDSDDTRGDRRYKRMIKNRESAARSRARKQAYTNELELEIAHLQTENARLKIQQEQLKIAEATQNQVKKTLQRSSTAPF
binding [1]: binds
binding [5]: binds

B11: FD with N-terminal 5xMyC, Q84JK2 1-285 (protein)
chain: MLSSAKHQRNHRLSATNKNQTLTKVSSISSSSPSSSSSSSSTSSSSPLPSQDSQAQKRSLVTMEEVWNDINLASIHHLNRHSPHPQHNHEPRFRGQNHHNQNPNSIFQDFLKGSLNQEPAPTSQTTGSAPNGDSTTVTVLYSSPFPPPATVLSLNSGAGFEFLDNQDPLVTSNSNLHTHHHLSNAHAFNTSFEALVPSSSFGKKRGQDSNEGSGNRRHKRMIKNRESAARSRARKQAYTNELELEVAHLQAENARLKRQQDQLKMAAAIQQPKKNTLQRSSTAPF
binding [9]: binds
binding [10]: binds

B12: FD^T282A with N-terminal 5xMyC (protein, UniProt Q84JK2 1-285)
chain: MLSSAKHQRNHRLSATNKNQTLTKVSSISSSSPSSSSSSSSTSSSSPLPSQDSQAQKRSLVTMEEVWNDINLASIHHLNRHSPHPQHNHEPRFRGQNHHNQNPNSIFQDFLKGSLNQEPAPTSQTTGSAPNGDSTTVTVLYSSPFPPPATVLSLNSGAGFEFLDNQDPLVTSNSNLHTHHHLSNAHAFNTSFEALVPSSSFGKKRGQDSNEGSGNRRHKRMIKNRESAARSRARKQAYTNELELEVAHLQAENARLKRQQDQLKMAAAIQQPKKNTLQRSSAAPF
binding [2]: binds

More lines, now with the values ahead:

binding [1]: binds
binding [5]: binds
B4: bZIP transcription factor AREB3, activation-domain fusion in pDEST22 (protein, UniProt Q9LES3 1-297)
chain: MDSQRGIVEQAKSQSLNRQSSLYSLTLDEVQNHLGSSGKALGSMNLDELLKSVCSVEANQPSSMAVNGGAAAQEGLSRQGSLTLPRDLSKKTVDEVWKDIQQNKNGGSAHERRDKQPTLGEMTLEDLLLKAGVVTETIPGSNHDGPVGGGSAGSGAGLGQNITQVGPWIQYHQLPSMPQPQAFMPYPVSDMQAMVSQSSLMGGLSDTQTPGRKRVASGEVVEKTVERRQKRMIKNRESAARSRARKQAYTHELEIKVSRLEEENERLRKQKEVEKILPSVPPPDPKRQLRRTSSAPF

binding [6]: binds
B6: nYFP:AREB3 (protein, UniProt Q9LES3 1-297)
chain: MDSQRGIVEQAKSQSLNRQSSLYSLTLDEVQNHLGSSGKALGSMNLDELLKSVCSVEANQPSSMAVNGGAAAQEGLSRQGSLTLPRDLSKKTVDEVWKDIQQNKNGGSAHERRDKQPTLGEMTLEDLLLKAGVVTETIPGSNHDGPVGGGSAGSGAGLGQNITQVGPWIQYHQLPSMPQPQAFMPYPVSDMQAMVSQSSLMGGLSDTQTPGRKRVASGEVVEKTVERRQKRMIKNRESAARSRARKQAYTHELEIKVSRLEEENERLRKQKEVEKILPSVPPPDPKRQLRRTSSAPF

binding [6]: binds
B8: nYFP:AREB3^ΔSAP (domain or fragment, UniProt Q9LES3 1-290)
chain: MDSQRGIVEQAKSQSLNRQSSLYSLTLDEVQNHLGSSGKALGSMNLDELLKSVCSVEANQPSSMAVNGGAAAQEGLSRQGSLTLPRDLSKKTVDEVWKDIQQNKNGGSAHERRDKQPTLGEMTLEDLLLKAGVVTETIPGSNHDGPVGGGSAGSGAGLGQNITQVGPWIQYHQLPSMPQPQAFMPYPVSDMQAMVSQSSLMGGLSDTQTPGRKRVASGEVVEKTVERRQKRMIKNRESAARSRARKQAYTHELEIKVSRLEEENERLRKQKEVEKILPSVPPPDPKRQLR

binding [7]: binds
binding [8]: binds
B10: bZIP transcription factor FD, activation-domain fusion in pDEST22, Q84JK2 1-285 (protein)
chain: MLSSAKHQRNHRLSATNKNQTLTKVSSISSSSPSSSSSSSSTSSSSPLPSQDSQAQKRSLVTMEEVWNDINLASIHHLNRHSPHPQHNHEPRFRGQNHHNQNPNSIFQDFLKGSLNQEPAPTSQTTGSAPNGDSTTVTVLYSSPFPPPATVLSLNSGAGFEFLDNQDPLVTSNSNLHTHHHLSNAHAFNTSFEALVPSSSFGKKRGQDSNEGSGNRRHKRMIKNRESAARSRARKQAYTNELELEVAHLQAENARLKRQQDQLKMAAAIQQPKKNTLQRSSTAPF

binding [9]: binds
B13: FD^T282A with N-terminal 5xMyC, Q84JK2 1-285 (protein)
chain: MLSSAKHQRNHRLSATNKNQTLTKVSSISSSSPSSSSSSSSTSSSSPLPSQDSQAQKRSLVTMEEVWNDINLASIHHLNRHSPHPQHNHEPRFRGQNHHNQNPNSIFQDFLKGSLNQEPAPTSQTTGSAPNGDSTTVTVLYSSPFPPPATVLSLNSGAGFEFLDNQDPLVTSNSNLHTHHHLSNAHAFNTSFEALVPSSSFGKKRGQDSNEGSGNRRHKRMIKNRESAARSRARKQAYTNELELEVAHLQAENARLKRQQDQLKMAAAIQQPKKNTLQRSSAAPF
